At least one compound was matched to its structure with a doubt left.
Test: Solid-state stability and moisture sorption versus relative humidity (dynamic moisture sorption gravimetry, DMSG)
Assay type: physicochemical

C[C@]12O[C@H](C[C@]1(O)CO)n1c3ccccc3c3c4c(c5c6ccccc6n2c5c31)CNC4=O [Crystalline lestaurtinib monohydrate, lestaurtinib monohydrate]
behaviour above 40% RH (ambient temperature, above 40% RH): readily converts to the trihydrate
reduction of ability to absorb water when ground (factor) (ground with a mortar and pestle versus unground): about 6
